The target in the test is T1, Rx-v5 (UniProt Q9XGF5).
T1 sequence: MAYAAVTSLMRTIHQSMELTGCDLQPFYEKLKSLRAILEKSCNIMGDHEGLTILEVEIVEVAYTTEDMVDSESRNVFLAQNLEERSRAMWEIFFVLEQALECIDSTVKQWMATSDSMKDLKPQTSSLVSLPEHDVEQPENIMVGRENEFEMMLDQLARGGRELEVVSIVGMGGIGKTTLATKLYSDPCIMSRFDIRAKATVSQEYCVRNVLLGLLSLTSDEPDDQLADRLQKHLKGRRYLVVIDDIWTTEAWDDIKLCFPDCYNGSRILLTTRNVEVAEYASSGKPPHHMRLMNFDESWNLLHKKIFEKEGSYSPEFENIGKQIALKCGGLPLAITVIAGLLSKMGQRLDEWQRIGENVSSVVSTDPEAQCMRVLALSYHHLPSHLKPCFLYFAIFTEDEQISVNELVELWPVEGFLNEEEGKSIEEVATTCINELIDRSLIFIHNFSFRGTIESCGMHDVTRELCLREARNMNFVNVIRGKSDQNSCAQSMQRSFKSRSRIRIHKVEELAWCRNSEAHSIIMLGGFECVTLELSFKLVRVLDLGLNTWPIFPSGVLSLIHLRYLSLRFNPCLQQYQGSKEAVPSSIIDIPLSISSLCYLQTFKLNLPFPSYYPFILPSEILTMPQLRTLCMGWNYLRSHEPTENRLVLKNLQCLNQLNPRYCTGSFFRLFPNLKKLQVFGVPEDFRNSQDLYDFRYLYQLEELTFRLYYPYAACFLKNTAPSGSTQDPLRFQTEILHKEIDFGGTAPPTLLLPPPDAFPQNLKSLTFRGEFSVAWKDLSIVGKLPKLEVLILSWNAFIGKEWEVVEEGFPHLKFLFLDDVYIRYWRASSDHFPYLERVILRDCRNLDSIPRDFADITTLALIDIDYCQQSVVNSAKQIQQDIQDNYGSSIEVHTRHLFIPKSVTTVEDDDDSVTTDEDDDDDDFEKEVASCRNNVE
Briefly: co-IP.

No constants are given. Whether binding was seen depends on the method and setting. Binding seen in cells or lysates may run through a third protein. Sequences can lack the tags named with a protein.

In the case of “Pikm-2-6xHA (from UniProt P0DO08) (receptor)”, the binding entry is reported as “no binding”.

The record behind these values is doi:10.64898/2025.11.30.691369.
